Record: PubChem BioAssay AID686937 (Drosophila RNAi Screening Center, 2013)
In all, the deposit lists about 23,000 reagents; shown is an unselected part of those with a known target gene and a result. 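Reduced-secretion tags in replicate 1 do not always agree with the z-scores; no criterion for assigning the tags was given.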 Names joined by + are all predicted targets of the reagent. Reagent sequences are not shown. Not stated in the record: the amount of reagent.

- Screen: 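Genes whose loss weakens secretory pathway function in fly cells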 (primary screen)
- Cells: Drosophila S2 cells expressing secreted horseradish peroxidase
- Knock-down reagent: long dsRNA against Drosophila genes
- Duration: about 5.5 days (5 days dsRNA, then 12 h reporter induction)
- Conditions: reporter expression induced after 5 days of dsRNA, read 12 h later; inducer not stated
- Detection: 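After 5 days of dsRNA and 12 h of reporter induction, medium peroxidase read by chemiluminescence and scored as per-plate z-score; higher values mean more reporter released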
- Scale: z-score: higher = more reporter secreted into medium

gene knocked down | DRSC id | z-score, replicate 1 | z-score, replicate 2 | z-score, replicate 3 | z-score, replicate 4 | phenotype, replicate 1
CecC | DRSC16606 | 0.35 | -0.01 | – | – | –
CG43183 | DRSC05113 | 0.34 | – | – | – | –
CG34200 | DRSC04804 | 0.08 | – | – | – | –
ND4 (retired record) | DRSC21269 | 0.57 | 0.08 | – | – | –
Rox8 | DRSC16829 | 0.14 | 0.23 | – | – | –
Atg4b | DRSC15988 | 0.07 | 0.48 | – | – | –
Mybbp1A | DRSC18788 | 0.2 | -0.21 | – | – | –
kl-5 (retired record) | DRSC20707 | 0.36 | 0.18 | – | – | –
kl-5 (retired record) | DRSC20736 | 0.25 | 0.2 | – | – | –
kl-5 (retired record) | DRSC20773 | 0.41 | 0.15 | – | – | –
kl-5 (retired record) | DRSC21161 | 0.45 | 0.2 | – | – | –
Mlc2 | DRSC16741 | 0.5 | 0.49 | – | – | –
Spn88Ea | DRSC17061 | -0.38 | 0.27 | – | – | –
Gagr | DRSC10441 | 0.08 | 0.3 | – | – | –
Sptz | DRSC15758 | 0.34 | 0.19 | – | – | –
CG10587 | DRSC11627 | 0.24 | 0.32 | – | – | –
sta | DRSC18838 | -1.8 | -2.51 | – | – | reduced secretion
CG6000 | DRSC15938 | 0.25 | 0.4 | – | – | –
Hus1-like | DRSC12353 | 0.22 | 0.46 | – | – | –
nsr | DRSC04427 | 0.4 | 0.48 | – | – | –
nsr | DRSC22806 | 0.41 | -1.35 | – | – | –
Chi | DRSC04602 | 0.27 | 0.19 | – | – | –
Prosbeta3 | DRSC16801 | -5.28 | -4.63 | – | – | reduced secretion
MED31 | DRSC12142 | -0.51 | -0.67 | – | – | –
drongo | DRSC00814 | 0.36 | 0.66 | – | – | –
CG5674 | DRSC02874 | -1.77 | -0.93 | – | – | reduced secretion
CG14635 | DRSC17945 | 0.45 | 0.47 | – | – | –
CG16825 | DRSC02526 | 0.57 | 0.11 | – | – | –
Ir7f | DRSC18012 | 0.24 | 0.29 | – | – | –
Ifrd1 | DRSC00415 | 0.07 | 0.36 | – | – | –
Ifrd1 | DRSC00566 | 0.19 | 0.43 | – | – | –
CCKLR-17D1 | DRSC20010 | -0.21 | 0.5 | – | – | –
CCKLR-17D1 | DRSC20011 | 0.61 | 0.39 | – | – | –
CCKLR-17D1 | DRSC20012 | 0.25 | 0.35 | – | – | –
ZnT49B | DRSC07225 | 0.38 | 0.24 | – | – | –
CG42809 | DRSC02532 | 0.4 | 0.31 | – | – | –
beta4GalNAcTA | DRSC05944 | 0.66 | 0.67 | – | – | –
CG15390 | DRSC00404 | -0.03 | 0.15 | – | – | –
CG13738 | DRSC10065 | -0.91 | -0.79 | – | – | –
BomS3 | DRSC21458 | 0.53 | 1.28 | – | – | –
CG10737 | DRSC05999 | 0.2 | 0.43 | – | – | –
Nop17l | DRSC06556 | 0.33 | 0.41 | – | – | –
CG2444 | DRSC19846 | 0.09 | -0.51 | – | – | –
CG11035 | DRSC14287 | 0.35 | 0.47 | – | – | –
CG8539 | DRSC10988 | 0.25 | 0.25 | – | – | –
CG8539 | DRSC21798 | -0.45 | -0.44 | – | – | –
caps | DRSC11333 | 0.23 | 0.15 | – | – | –
caps | DRSC22224 | -0.09 | -0.23 | – | – | –
CG9876 | DRSC04586 | 0.16 | 0.36 | – | – | –
TwdlW | DRSC15540 | 0.13 | -0.27 | – | – | –
Atg1 | DRSC09809 | 0.18 | 0.05 | – | – | –
Atg1 | DRSC09810 | 0.21 | 0.12 | – | – | –
CG32425 | DRSC11739 | -2.93 | -1.17 | – | – | reduced secretion
CG32425 | DRSC11764 | 0.14 | 0.2 | – | – | –
Cyp6a8 | DRSC07384 | 0.38 | 0.25 | – | – | –
CG32212 + hpRNA:CR33940 | DRSC09618 | 0.53 | 0.27 | – | – | –
Damm | DRSC07393 | 0.08 | 0.19 | – | – | –
CG8850 | DRSC07287 | 0.34 | 0.35 | – | – | –
CG9130 + CG9133 | DRSC08624 | -0.24 | 0.51 | 0.27 | 0.34 | –
CG9130 + CG9133 | DRSC08625 | -1.6 | -0.5 | – | – | reduced secretion
CG9130 + CG9133 | DRSC22010 | -0.53 | -0.17 | – | – | –
CG18558 | DRSC00525 | 0.09 | 0.07 | – | – | –
CG18558 | DRSC21593 | 0.38 | -0.43 | – | – | –
Ir100a | DRSC14329 | 0.27 | 0.35 | 1.57 | 1.38 | –
CG34181 | DRSC01071 | -1.12 | -0.42 | – | – | –
Arpc2 | DRSC02113 | 0.25 | 0.15 | – | – | –
CG13577 | DRSC04213 | 0.03 | 0.17 | – | – | –
RpL10Aa | DRSC15518 | -2.34 | -1.22 | – | – | reduced secretion
CG14273 | DRSC02377 | -0.07 | 0.38 | – | – | –
CG32240 | DRSC08093 | -0.14 | -0.14 | – | – | –
CG34026 | DRSC17616 | 0.05 | 0.03 | – | – | –
htk | DRSC20029 | -1.64 | -2.83 | – | – | reduced secretion
htk | DRSC20031 | -1.76 | -0.96 | – | – | reduced secretion
Lnk | DRSC16729 | 0.25 | 0.38 | – | – | –
Nepl20 | DRSC14878 | 0.12 | 0.27 | – | – | –
kni | DRSC11891 | 0.4 | 0.57 | – | – | –
NiPp1 | DRSC07307 | 0.12 | 0.19 | – | – | –
TTLL6B | DRSC15932 | -0.13 | -0.52 | – | – | –
CG13674 | DRSC10033 | 0.44 | -0.11 | – | – | –
CG13484 | DRSC10026 | -0.29 | -0.1 | – | – | –
rut | DRSC20367 | -0.58 | -2.68 | – | – | –
CG5214 | DRSC15739 | 0.62 | 0.37 | 0.52 | 0.45 | –
CG5214 | DRSC22842 | 0.35 | 0.14 | – | – | –
CG18731 | DRSC15377 | 0.23 | 0.17 | – | – | –
Arl5 | DRSC10785 | 0.26 | 0.21 | – | – | –
VhaAC45RP | DRSC15423 | -1.59 | -0.33 | – | – | –
Bet1 | DRSC10088 | -5.3 | -4.94 | – | – | reduced secretion
Crys | DRSC03294 | -0.15 | 0.03 | – | – | –
eIF1A | DRSC16937 | -2.56 | -3.45 | – | – | reduced secretion
koko + Vti1b | DRSC16283 | 0.05 | 0.2 | – | – | –
koko + Vti1b | DRSC16284 | 0.35 | 0.3 | – | – | –
NP15.6 | DRSC16756 | 0.3 | 0.53 | – | – | –
csw | DRSC18756 | -0.83 | 0.07 | – | – | –
Rbbp5 | DRSC11778 | 0.29 | 0.3 | – | – | –
CG12025 | DRSC08230 | 0.36 | 0.28 | – | – | –
Cep135 | DRSC09345 | 0.21 | -0.13 | – | – | –
Cep135 | DRSC10244 | 0.2 | 0.32 | – | – | –
Trmt6 | DRSC03272 | -0.01 | 0.3 | – | – | –
Osi19 | DRSC12569 | 0.29 | -0.95 | – | – | –
Phk-3 | DRSC04547 | 0.43 | 0 | – | – | –
psh | DRSC19990 | 0.34 | 0.43 | – | – | –
CG10283 | DRSC02034 | 0.39 | 0.32 | – | – | –
AOX1 | DRSC15339 | 0.19 | 0.29 | – | – | –
CG7685 | DRSC16285 | 0.29 | -0.03 | – | – | –

Copied from the list:
For “z-score, replicate 2”, CG5214 [DRSC22842] shows 0.14
Entry for Lnk [DRSC16729] under “z-score, replicate 1”: 0.25
Crys [DRSC03294], z-score, replicate 2 = 0.03
Value for Trmt6 [DRSC03272] under “z-score, replicate 1”: -0.01
For “z-score, replicate 1”, CecC [DRSC16606] has 0.35
Value for CG9876 [DRSC04586] in “z-score, replicate 1”: 0.16
